The source of these data is patent US20210128755.

Sequences of proteins named here, by UniProt entry; tags and fusion partners are left off. Residues count along the entry.
UniProt P10809, 27-573: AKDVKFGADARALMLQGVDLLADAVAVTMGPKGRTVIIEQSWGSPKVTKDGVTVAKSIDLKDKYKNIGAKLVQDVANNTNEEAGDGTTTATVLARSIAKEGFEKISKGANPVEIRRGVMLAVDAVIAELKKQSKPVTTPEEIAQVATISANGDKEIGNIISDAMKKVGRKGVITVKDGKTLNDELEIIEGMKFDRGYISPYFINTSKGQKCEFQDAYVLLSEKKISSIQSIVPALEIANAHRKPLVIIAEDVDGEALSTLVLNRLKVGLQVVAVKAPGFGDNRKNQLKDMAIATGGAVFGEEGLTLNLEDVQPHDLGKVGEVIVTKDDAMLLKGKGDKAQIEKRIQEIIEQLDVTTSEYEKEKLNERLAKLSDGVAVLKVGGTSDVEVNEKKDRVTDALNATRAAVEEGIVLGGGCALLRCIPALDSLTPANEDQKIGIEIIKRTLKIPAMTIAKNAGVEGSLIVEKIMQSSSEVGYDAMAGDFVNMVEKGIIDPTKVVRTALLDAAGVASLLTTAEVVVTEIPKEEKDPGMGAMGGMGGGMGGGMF
UniProt P08670, 2-466: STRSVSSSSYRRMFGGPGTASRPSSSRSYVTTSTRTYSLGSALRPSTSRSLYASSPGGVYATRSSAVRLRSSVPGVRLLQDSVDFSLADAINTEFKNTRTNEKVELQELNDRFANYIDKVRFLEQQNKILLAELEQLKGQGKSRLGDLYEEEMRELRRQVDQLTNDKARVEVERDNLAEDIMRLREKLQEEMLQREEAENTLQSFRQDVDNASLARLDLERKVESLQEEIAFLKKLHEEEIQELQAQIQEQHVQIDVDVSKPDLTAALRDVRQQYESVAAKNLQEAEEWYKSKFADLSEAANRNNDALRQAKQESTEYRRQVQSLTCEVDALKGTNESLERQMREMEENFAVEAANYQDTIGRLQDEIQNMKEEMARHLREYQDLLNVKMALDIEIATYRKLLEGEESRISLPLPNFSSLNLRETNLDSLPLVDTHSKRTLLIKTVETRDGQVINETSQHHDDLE

Changes are numbered by the printed parent chain. For at least one entry, the source does not settle the construct or the ends of the probe. At least one result comes from cells or an extract, where the contact may be indirect. For some of these results: Tags and fusion partners may be left off the protein sequences shown.

Test in all cases: pull-down
One data set has as its target T1, KRT6B (Homo sapiens) (UniProt P04259).
T1 sequence (looked up, limits assumed): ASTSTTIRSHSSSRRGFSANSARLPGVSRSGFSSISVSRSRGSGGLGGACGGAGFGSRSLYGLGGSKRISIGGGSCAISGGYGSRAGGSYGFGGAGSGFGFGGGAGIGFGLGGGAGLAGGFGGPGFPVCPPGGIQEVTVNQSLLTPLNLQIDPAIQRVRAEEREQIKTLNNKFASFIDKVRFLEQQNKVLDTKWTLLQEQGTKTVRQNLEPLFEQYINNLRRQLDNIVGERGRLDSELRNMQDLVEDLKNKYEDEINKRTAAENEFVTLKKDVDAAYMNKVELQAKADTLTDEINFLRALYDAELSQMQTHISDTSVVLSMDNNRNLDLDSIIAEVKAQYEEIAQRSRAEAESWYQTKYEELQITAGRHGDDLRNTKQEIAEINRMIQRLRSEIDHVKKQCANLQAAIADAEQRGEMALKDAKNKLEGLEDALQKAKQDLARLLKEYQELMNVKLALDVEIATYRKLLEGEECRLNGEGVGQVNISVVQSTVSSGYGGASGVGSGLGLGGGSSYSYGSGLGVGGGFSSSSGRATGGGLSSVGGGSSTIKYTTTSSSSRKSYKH
The settings on record: thioaptamer (PS positions not stated); emPAI ~0.38; cross-linked pulldown and MS; absent in R4 control; protein in cells; label: biotin; single-stranded DNA.

Data set [1] deals with HSPD1 (printed HSPD1 + FIG. 4 legend HSPD90) (Homo sapiens) (UniProt P10809). As to conditions: thioaptamer (PS positions not stated), protein in cells, label: biotin, single-stranded DNA.
The target in a further data set is T2, KRT6A (Homo sapiens) (UniProt P02538).
T2 sequence (looked up, limits assumed): T1 sequence (looked up, limits assumed) with I35V, A154T, D191E, N226S, N240G, L248F, I364V, T534I
As to conditions: thioaptamer (PS positions not stated), cross-linked pulldown and MS, absent in R4 control, protein in cells, label: biotin, single-stranded DNA.

The target of data set [2] is VIM (vimentin) (Homo sapiens) (UniProt P08670). As to conditions: thioaptamer (PS positions not stated); emPAI 2.7; cross-linked pulldown and MS; absent in R4 control; protein in cells; label: biotin; single-stranded DNA.

CCCCCCACGGTCTCCGCTCCACAAGTTCAC [Tau_1]: the binding result (with KRT6B (Homo sapiens); in data set [1]; in the data set with KRT6A (Homo sapiens) (emPAI ~0.38)) was “binds” throughout.

On to CTCGTCCCACCACAACATTATCTCAACGCC [Tau_4], for which the binding result is given as “binds” in data set [1] (emPAI ~1.08, cross-linked pulldown and MS, absent in R4 control); “binds” in the data set with KRT6A (Homo sapiens) (emPAI ~0.79).

Consider CCCCCCACGGTCTCCGCTCCACAAGTCCAC [Tau_3], for which the binding result in data set [2] is recorded as “binds”; in data set [1] (emPAI ~0.62, cross-linked pulldown and MS, absent in R4 control), “binds”.
